Results as given in PMC5778047.
Results are given in words; binding and its absence hold for the method and conditions named. Binding seen in cells or lysates may run through a third protein. Some binding calls cover weakened binding; strength is not graded here.

Chains of the proteins cited; added tags and fusions are not shown. Residues count along the entry.
UniProt P11717, residues 41-2491: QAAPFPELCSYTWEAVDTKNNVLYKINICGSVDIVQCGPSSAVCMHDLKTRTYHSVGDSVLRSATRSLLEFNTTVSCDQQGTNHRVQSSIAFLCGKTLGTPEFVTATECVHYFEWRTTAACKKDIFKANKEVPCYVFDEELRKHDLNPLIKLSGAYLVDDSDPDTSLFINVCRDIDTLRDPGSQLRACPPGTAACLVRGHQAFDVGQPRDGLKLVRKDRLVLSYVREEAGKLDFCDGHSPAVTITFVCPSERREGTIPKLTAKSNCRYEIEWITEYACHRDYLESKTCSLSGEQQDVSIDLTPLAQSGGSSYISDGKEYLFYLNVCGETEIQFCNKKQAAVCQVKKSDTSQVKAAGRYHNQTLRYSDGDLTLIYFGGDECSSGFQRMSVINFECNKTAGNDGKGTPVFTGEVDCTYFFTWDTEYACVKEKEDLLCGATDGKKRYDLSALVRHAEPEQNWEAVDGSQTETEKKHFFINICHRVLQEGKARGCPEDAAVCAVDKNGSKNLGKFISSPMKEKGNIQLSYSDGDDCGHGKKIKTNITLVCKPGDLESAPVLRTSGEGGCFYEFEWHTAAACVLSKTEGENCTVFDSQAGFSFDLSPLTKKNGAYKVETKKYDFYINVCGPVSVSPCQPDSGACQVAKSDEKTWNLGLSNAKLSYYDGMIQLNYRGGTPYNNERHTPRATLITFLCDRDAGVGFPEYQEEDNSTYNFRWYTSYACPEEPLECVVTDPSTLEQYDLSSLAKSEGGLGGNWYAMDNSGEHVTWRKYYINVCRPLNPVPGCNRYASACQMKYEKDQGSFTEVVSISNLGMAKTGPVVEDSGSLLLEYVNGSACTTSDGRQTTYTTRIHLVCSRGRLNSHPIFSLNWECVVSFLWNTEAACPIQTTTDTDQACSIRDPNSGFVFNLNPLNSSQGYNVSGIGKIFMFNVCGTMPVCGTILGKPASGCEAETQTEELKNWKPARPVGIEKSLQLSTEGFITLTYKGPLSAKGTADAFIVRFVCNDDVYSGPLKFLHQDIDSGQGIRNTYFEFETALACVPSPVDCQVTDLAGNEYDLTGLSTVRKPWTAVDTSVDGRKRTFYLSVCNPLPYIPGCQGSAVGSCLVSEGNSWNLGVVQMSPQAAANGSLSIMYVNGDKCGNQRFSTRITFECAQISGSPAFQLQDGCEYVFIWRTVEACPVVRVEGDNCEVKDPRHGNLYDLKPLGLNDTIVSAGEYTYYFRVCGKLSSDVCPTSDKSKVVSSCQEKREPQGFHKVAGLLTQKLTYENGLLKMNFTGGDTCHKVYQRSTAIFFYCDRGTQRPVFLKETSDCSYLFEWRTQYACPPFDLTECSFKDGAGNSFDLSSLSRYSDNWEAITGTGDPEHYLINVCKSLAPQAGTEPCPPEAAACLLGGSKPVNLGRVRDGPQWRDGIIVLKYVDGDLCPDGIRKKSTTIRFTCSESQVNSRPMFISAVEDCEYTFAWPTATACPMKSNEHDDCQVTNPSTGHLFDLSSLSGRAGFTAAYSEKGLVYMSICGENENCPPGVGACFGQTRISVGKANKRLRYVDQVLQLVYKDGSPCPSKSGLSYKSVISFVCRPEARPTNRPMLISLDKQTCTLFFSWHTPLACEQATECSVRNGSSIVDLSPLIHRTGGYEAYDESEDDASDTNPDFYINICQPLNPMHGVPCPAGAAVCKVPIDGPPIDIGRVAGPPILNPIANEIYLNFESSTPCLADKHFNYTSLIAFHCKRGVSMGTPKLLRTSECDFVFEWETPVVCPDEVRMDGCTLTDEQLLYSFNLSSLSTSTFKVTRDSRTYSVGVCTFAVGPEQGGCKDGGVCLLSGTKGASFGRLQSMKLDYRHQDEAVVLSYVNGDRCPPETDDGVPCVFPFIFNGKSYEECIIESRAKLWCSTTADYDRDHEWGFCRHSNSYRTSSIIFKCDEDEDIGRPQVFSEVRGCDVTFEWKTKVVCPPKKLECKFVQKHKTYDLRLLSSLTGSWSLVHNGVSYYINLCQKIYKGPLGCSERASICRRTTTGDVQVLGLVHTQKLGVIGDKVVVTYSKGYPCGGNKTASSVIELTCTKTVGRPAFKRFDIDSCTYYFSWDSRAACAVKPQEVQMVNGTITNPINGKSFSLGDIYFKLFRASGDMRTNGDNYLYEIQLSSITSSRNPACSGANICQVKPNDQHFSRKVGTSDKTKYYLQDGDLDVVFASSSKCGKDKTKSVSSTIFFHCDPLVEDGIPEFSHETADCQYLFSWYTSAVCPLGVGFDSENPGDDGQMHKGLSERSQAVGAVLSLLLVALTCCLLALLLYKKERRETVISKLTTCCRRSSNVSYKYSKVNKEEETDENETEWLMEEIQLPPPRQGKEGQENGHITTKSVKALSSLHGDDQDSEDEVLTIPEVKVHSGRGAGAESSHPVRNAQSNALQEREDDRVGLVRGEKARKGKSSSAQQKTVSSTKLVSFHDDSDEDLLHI
UniProt Q9UJY4: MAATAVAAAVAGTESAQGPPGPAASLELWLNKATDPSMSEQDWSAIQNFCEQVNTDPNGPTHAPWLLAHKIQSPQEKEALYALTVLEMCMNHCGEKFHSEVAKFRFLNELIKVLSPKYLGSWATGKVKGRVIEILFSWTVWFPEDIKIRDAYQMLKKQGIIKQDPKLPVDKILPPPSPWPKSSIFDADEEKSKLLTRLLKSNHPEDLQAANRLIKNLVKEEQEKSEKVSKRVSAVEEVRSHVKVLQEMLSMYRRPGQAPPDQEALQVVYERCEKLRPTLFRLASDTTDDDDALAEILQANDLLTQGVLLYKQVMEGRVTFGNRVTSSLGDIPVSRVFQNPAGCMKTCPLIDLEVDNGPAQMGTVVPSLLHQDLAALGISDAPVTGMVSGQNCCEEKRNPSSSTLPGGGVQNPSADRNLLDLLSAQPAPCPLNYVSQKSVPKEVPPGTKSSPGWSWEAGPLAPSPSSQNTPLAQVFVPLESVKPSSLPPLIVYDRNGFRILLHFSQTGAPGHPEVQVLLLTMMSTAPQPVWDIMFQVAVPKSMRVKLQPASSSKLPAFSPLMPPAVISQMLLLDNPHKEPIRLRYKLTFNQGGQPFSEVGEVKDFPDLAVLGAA

What was measured:
[1] = target: EGFR (endogenous, ARPE-19 cells) (human (endogenous in ARPE-19)) (UniProt P00533); test: proximity ligation; Duolink In Situ PLA on fixed ARPE-19 cells with mouse anti-GGA2 and rabbit anti-EGFR or rabbit anti-CIMPR; cells transfected with siCtrl, siGGA2, siEGFR, siGGA1 or siGGA3
[2] = target: CIMPR (endogenous, ARPE-19 cells) (human (endogenous in ARPE-19)) (UniProt P11717); test: as above

binding [1]: binds
binding [2]: binds
Substance: GGA2 (endogenous, ARPE-19 cells) (from UniProt Q9UJY4 1-613)
